According to the supplement of paper PMC3334620:
In all, about 33,000 sequences were measured (“E-score (-0.5 to 0.5)”: median about -0.0034, highest 2% from about 0.25 on). This is one part of the list.

target: T1, Yap3 (UniProt P38749); assay: PBM E-score (8-mer binding enrichment) (E-score (-0.5 to 0.5)); higher = stronger / more preferred TF binding; conditions: protein concentration: 100 nM; construct: GST-full length
T1 sequence: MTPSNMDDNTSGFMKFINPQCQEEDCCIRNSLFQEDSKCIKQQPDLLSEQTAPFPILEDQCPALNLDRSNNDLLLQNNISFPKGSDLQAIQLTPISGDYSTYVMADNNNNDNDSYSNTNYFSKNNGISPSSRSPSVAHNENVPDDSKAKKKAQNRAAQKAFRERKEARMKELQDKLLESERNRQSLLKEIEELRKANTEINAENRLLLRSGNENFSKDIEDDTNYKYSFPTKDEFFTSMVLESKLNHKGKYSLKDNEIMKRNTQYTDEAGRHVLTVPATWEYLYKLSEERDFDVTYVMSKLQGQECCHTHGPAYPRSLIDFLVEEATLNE
Procedure, shortened: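 Universal all-10-mer Agilent arrays, fresh or stripped once, were converted to double-stranded form by primer extension. GST-tagged yeast transcription factors from PURExpress in vitro transcription/translation, full-length or DNA-binding domain only, were applied at about 100-200 nM and detected with fluorescent anti-GST. After masliner normalisation, the Universal PBM Analysis Suite scored each ungapped eight-base word together with its reverse complement by E-score.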

Sequence	PBM E-score
ACATATGT	0.167
AGCTCCCC	-0.312
GACCGCTC	-0.232
CTCTCCAG	-0.355
ACGGTGTC	-0.155
CCGGCTTA	-0.048
AAACCCGT	-0.143
ATCTTCAC	-0.00342
ACGCTTCA	-0.133
CCCTACAG	-0.0996
GATTCAGA	0.0691
CTATGCTA	0.0834
ATATCGAT	0.223
AAAGCTTC	-0.13
GCTTCCCA	-0.0981
CTATCAAC	0.0852
TTAATGAA	0.187
GAGTCTAC	-0.163
CAGGGGGA	-0.338
ATGTTGAC	0.15
ACAGCAGA	-0.0637
CCAAAGGG	-0.182
CCTACACG	-0.251
CCTTGCGC	0.00663
GGACATCC	-0.169

Sequence	PBM E-score
CCAATCCC	0.0775
CAACTCTC	-0.044
CGTATGTC	-0.0305
ACTATCTC	0.145
AAGTTAAC	0.193
CAAATTTG	0.144
TACACCCA	0.0384
GGCGTTTA	0.0247
GTTTACTA	0.196
CAGTGCAA	0.0797
GTTTCTAA	0.0152
GTTGACGA	0.109
CACCATAC	-0.0118
ATAAATTA	0.365
ACCAGTCA	0.0862
CTCTATTA	0.0839
CAGAGGGG	-0.395
ACTGTACT	0.0814
ATCATGTC	0.0372
ATAATAGG	0.157
CGTTGGCC	-0.213
ACCCTGTA	0.00489
AAGGCTAG	0.0764
CCAACAAG	-0.0107
GTAATGTA	0.2

In a second layout: entries from further up
Sequence,PBM E-score
CTCTATTA,0.0839
GTAATGTA,0.2

Next part:

Sequence	PBM E-score
AGTGGTCC	-0.146
CCTGGTAC	-0.0396
CTATTTTA	0.251
ATCGTTAA	0.17
GTTACACA	-0.0287
AGGGTTCA	-0.0847
CGTTACAG	0.011
CGCATAGC	-0.137
GCGGAGCA	-0.206
AAGCACTC	-0.109
AATTTCAC	0.194
ACTCGTCT	0.058
ACATCTTA	-0.0189
ACACTGTC	-0.0325
ACGAAGAT	0.0321
CGGGTTAG	-0.155
AATTGAGC	-0.0534
CCAACTCC	0.117
TCGGGGAA	0.0864
CCCACGAC	-0.287
GGGAACAA	0.213
CGAGGGAA	0.00016
CTATTGGC	-0.119
GAGTGAGC	-0.0403
AGTCCGCG	-0.172

Shown bar-delimited: entries from further up
Sequence | PBM E-score
ATAAATTA | 0.365
ACCAGTCA | 0.0862
CTCTATTA | 0.0839

(next part)

Sequence	PBM E-score
AAGGTCAG	-0.112
CACAAGAA	0.169
ATAGTGTA	0.141
GGGATACC	-0.27
AAGCAAAC	0.096
AGTTTTCA	0.184
AAGCTTCT	0.00604
AGGATGGG	-0.185
GGTCGACA	-0.0148
CATAGCAG	-0.148
AGGTCTAG	-0.186
AGATATAG	0.136
ACGCGAGT	0.087
TGTCTGAA	0.168
GATACCAC	0.0539
ACGAGCTC	-0.0766
ACGGACAG	-0.147
ACCATTCC	0.0791
AACGTACC	-0.00955
AGCAAGGG	-0.0892
GAGCCGGA	-0.213
CTTTGTAA	0.27
AAAGAACG	0.151
CCTCCCCA	-0.0831
AACATTGC	-0.159

Sequence	PBM E-score
CGTTGGAA	-0.0926
AGTAACCG	0.0701
CAATGAAA	0.077
CGTAGGGA	-0.167
AACTCAGC	-0.0226
GTCATCCA	0.0539
ATTCGGCC	-0.00866
GGGATTAC	0.00382
TGGTTAAA	0.132
CTCAGAGA	-0.0892
CATTTAGA	0.0705
ACTTTCCA	0.125
TATGCATA	0.101
CTCTCGTC	-0.101
CGCACATC	-0.0346
GAAGTGCC	-0.0109
ATATCGTG	0.0998
AATGGCCG	-0.0799
AAGGAACA	-0.126
ATTGTATC	0.0413
CCCCAGGC	-0.433
ATCAACCG	-0.0115
ACAGAGGG	-0.1
ATTGGGAC	0.0878
ACACTGCC	0.125

Sequence	PBM E-score
CTCACGGA	-0.107
ATGCTTTG	-0.00817
CGTAAAAA	0.128
AGACACAA	0.11
AGGACCCT	-0.358
GTGAATAA	0.242
CCTCTACC	-0.0767
ACCTTTCT	0.0996
ATAAATGC	0.0282
CTTGTGCC	-0.145
ATAATTAT	0.302
ACCCTCCT	-0.256
GATTGAGC	0.0624
CAGTAGCA	-0.0517
GTTAAAGA	0.09
AATCAGGC	0.00403
AGTATGGA	0.0471
CACGATGA	-0.0352
AGCCCGTG	-0.272
ACGTACGA	0.12
ATGGCGAG	-0.0102
CAGCCGTA	-0.0218
GGGCCGGA	-0.221
ATACCAGA	0.0838
ACCAGACG	-0.0225

Sequence	PBM E-score
GGTGCAAA	-0.0554
AAGACCTG	-0.0952
AAAGCGAG	0.151
GCATTCTA	0.0863
CGAAAGGA	0.0982
AAAGCACG	0.00603
CACCCCCA	-0.259
AATACCAG	0.0568
AACCGCTG	-0.0528
CCAAACAC	0.0223
GCGTGGGA	-0.0649
ACGTGTCC	-0.187
GCTCAACC	-0.231
GAAATTGA	0.0938
AAGAGAAA	-0.0804
AGTAAGAA	0.248
CTAGCTGA	-0.0664
TGCGGGAA	0.044
AGTTATCC	0.182
ACCTCCGA	-0.255
ATTGTGTG	-0.00808
ACTGTGCG	0.0391
ACAACTGA	0.0451
ACAACTCT	-0.0568
ACCGGTGA	-0.141

Sequence	PBM E-score
CCCACACG	-0.0691
AGGTTTTG	-0.0823
CACCCCCG	-0.116
ATCTACCC	0.149
CCATTACG	0.0884
GCCCTCCA	-0.253
AACACAAC	0.165
AAAGCAAT	0.233
AAATACCA	0.0504
GAAGCTAC	-0.00835
TGTCCTAA	-0.0134
GGGGCGAA	-0.128
AGAGTATC	0.198
GGATGGCA	0.168
GGCTTACA	0.132
TACGTATA	0.142
AAGGGACA	0.0649
AAGGGAAA	0.0322
CCGAAGCG	-0.246
AACGGGGG	-0.258
ATGGTGTG	0.0676
ACTTCCAC	0.051
GCTTTCAC	-0.00313
ACGAGGCC	-0.247
ATCTAAGC	-0.228

Looked up one by one from the list above (3):
Sequence	PBM E-score
ATCTACCC	0.149
GGCTTACA	0.132
AACACAAC	0.165

Later entries:

Sequence	PBM E-score
ATGTTGCG	0.102
CATACTAG	0.226
AGGTACCA	-0.0525
AGATCAAC	-0.0012
GCCGAGTA	-0.179
ATCCAACA	0.122
CCTGTATC	0.2
ATATATCA	0.118
AATTGAGG	0.1
AAGATCCT	0.126
GCCCAAGA	-0.222
GCTTCCAC	-0.185
AGTTGGCC	-0.206
CGGGCGCC	-0.126
ATGCCAGA	0.134
GTGGTCCA	-0.0506
GTGCATAA	0.0268
ACCATGAA	0.114
ACCAAACT	0.00739
